Measured values from patent publication US20250114335A1, “METHODS AND COMPOSITIONS FOR THE TREATMENT OF EPILEPSY” (ARIZONA BOARD OF REGENTS ON BEHALF OF THE UNIVERSITY OF …, priority 2022, published 2025).
For at least one compound, name, drawing or mass did not settle the structure.

Experiments:
[1] = system: Scn8a-N1768D mouse model; test: Example 1: candesartan at different stages of epileptogenesis in Scn8a-N1768D mice; format: in vivo; conditions: statistically significant
[2] = system: B6-D/D (Scn8a-N1768D) juvenile mice; test: Survival and seizure frequency, B6-D/D juvenile mice; format: in vivo, mouse
Description: Mouse strains: The C57BL/6J-N1768D congenic mouse (B6-D/+) was used for phenotyping, RNAseq, and BBB studies. In addition, a hybrid strain that was produced by backcross breeding to transfer the Scn8a-N1768D allele from the B6 to the C3H/HeJ strain background was used to further assess the effect of CND on survival and seizure frequency. After constructing an F1 by crossing male B6-D/+ heterozygotes to female C3H/HeJ, five rounds of backcrossing (N6) produced a […] and 98.5% C3H/HeJ-N1768D line (C3H-D/+). Sister-brother mating maintained the 98.5% C3H background. […] C3H-D/D mice have a delayed seizure onset (˜40-45 days) and an extended survival (65-70 days) with intermittent bouts of TCs (FIG. 1A).
Phenotyping: Female and male mice on both the B6 and C3H backgrounds were housed in sex-specific groups of 3-4 per cage in a pathogen-free mouse facility with a 14 h light/10 h dark cycle (lights turned on at 5 am). A 24/7 video monitoring system was utilized to collect seizure data, with infrared illumination to monitor behavior during the dark period. Seizures were counted as individual TCs. […]
Survival and seizure frequency studies: B6-D/D mice were injected with CND (n=10) or VEH (n=10) at 15 days of age (P15) and followed to monitor TCs by 24/7 video recording until death (FIG. 1B). […] Mice were monitored for seizures by 24/7 video recording until the time of death.

SMILES: CCOc1nc2cccc(C(=O)O)c2n1Cc1ccc(-c2ccccc2-c2nnn[nH]2)cc1 [CND, candesartan]
- adult survival ([1]; oral 4 mg/kg/day via peanut butter pellet): increased adult survival
- juvenile survival [1]: increased juvenile survival
- survival of juveniles (in words) [2]: outperformed phenytoin
